Values from PubChem BioAssay AID652243 (Drosophila RNAi Screening Center, 2013).
Assay: 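Fly regulators of androgen-dependent reporter output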 (primary screen). System: Drosophila S2R+ cells. Knock-down reagent: long dsRNA against Drosophila genes. Timing: 72 h (48 h, then 24 h hormone). Conditions: synthetic androgen R1881 at 10 nM for 24 h. Measurement: 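Per-well raw luminescence of the androgen-driven firefly reporter and of the Renilla control, two replicates each, without normalisation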. Reading the numbers: firefly reporter light: higher = more light from androgen-responsive reporter; Renilla control light: higher = more constitutive control signal (cell number, transfection). Active means: 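Hit when the log firefly-to-Renilla ratio dropped or increased by a fixed fold versus the mean of GFP or LacZ controls across duplicate plates; lowering cut given as 1.5 and as 3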. Meaning of the calls: active = hit: reporter lowered or raised; inactive = no hit.
The screen tested about 24,000 reagents; this is an unselected part of those with a known target gene and a result. Over the whole deposit, 246 (1%) got an active call. 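Plates not normalised; calls are printed but the firefly/Renilla ratio behind them is not deposited; fold cut for lowering reported inconsistently.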 Raw values are not corrected between plates. No sequences are given here. Not stated in the record: the amount of reagent.

| Gene | PubChem SID | firefly reporter light, replicate 1 | firefly reporter light, replicate 2 | Renilla control light, replicate 1 | Renilla control light, replicate 2 | outcome |
| --- | --- | --- | --- | --- | --- | --- |
| CG7335 (GeneID 40203) | SID104190608 | 2.36e5 | 2.57e5 | 1.86e6 | 2.30e6 | inactive |
| CG7335 (GeneID 40203) | SID104204858 | 2.96e5 | 2.70e5 | 5.52e5 | 5.43e5 | inactive |
| CG7460 (GeneID 39973) | SID104190642 | 1.76e5 | 2.37e5 | 1.71e6 | 2.26e6 | inactive |
| CG7460 (GeneID 39973) | SID104206471 | 1.16e6 | 8.79e5 | 2.54e6 | 1.62e6 | inactive |
| bai (GeneID 42996) | SID104194180 | 2.35e5 | 2.18e5 | 1.76e6 | 1.73e6 | inactive |
| ppk21 (GeneID 43485) | SID104194258 | 1.86e5 | 2.30e5 | 1.42e6 | 1.66e6 | inactive |
| CG5567 (GeneID 39986) | SID104190309 | 78804 | 57247 | 4.41e5 | 4.20e5 | inactive |
| lncRNA:CR32835 (GeneID 12798142) | SID104202082 | 7.59e5 | 6.48e5 | 2.18e6 | 1.72e6 | inactive |
| lncRNA:CR32835 (GeneID 12798142) | SID104204742 | 2.73e5 | 3.58e5 | 1.06e6 | 1.00e6 | inactive |
| CG13318 (GeneID 41048) | SID104194373 | 84862 | 1.36e5 | 1.93e6 | 1.91e6 | inactive |

3 entries already listed, arranged by “Renilla control light, replicate 1”, ascending.
| Gene | PubChem SID | firefly reporter light, replicate 1 | firefly reporter light, replicate 2 | Renilla control light, replicate 1 | Renilla control light, replicate 2 | outcome |
| --- | --- | --- | --- | --- | --- | --- |
| CG5567 (GeneID 39986) | SID104190309 | 78804 | 57247 | 4.41e5 | 4.20e5 | inactive |
| ppk21 (GeneID 43485) | SID104194258 | 1.86e5 | 2.30e5 | 1.42e6 | 1.66e6 | inactive |
| bai (GeneID 42996) | SID104194180 | 2.35e5 | 2.18e5 | 1.76e6 | 1.73e6 | inactive |

The list goes on.
| Gene | PubChem SID | firefly reporter light, replicate 1 | firefly reporter light, replicate 2 | Renilla control light, replicate 1 | Renilla control light, replicate 2 | outcome |
| --- | --- | --- | --- | --- | --- | --- |
| pinta (GeneID 42635) | SID104194490 | 1.10e5 | 65110 | 5.98e5 | 5.45e5 | inactive |
| CG4267 (GeneID 33405) | SID104179894 | 1.78e5 | 1.62e5 | 3.59e5 | 3.51e5 | inactive |
| CG4267 (GeneID 33405) | SID104180439 | 94021 | 1.09e5 | 8.77e5 | 1.06e6 | inactive |
| CG4267 (GeneID 33405) | SID104207217 | 5.24e5 | 5.13e5 | 1.34e6 | 1.19e6 | inactive |
| CG4267 (GeneID 33405) | SID104208396 | 3.58e5 | 4.38e5 | 1.02e6 | 1.19e6 | inactive |
| upd3 (GeneID 3346149) | SID104199428 | 7.46e5 | 6.99e5 | 3.76e6 | 3.22e6 | inactive |
| upd3 (GeneID 3346149) | SID104199760 | 6.27e5 | 4.64e5 | 4.12e6 | 3.30e6 | inactive |
| upd3 (GeneID 3346149) | SID104201715 | 6.03e5 | 6.39e5 | 1.71e6 | 1.69e6 | inactive |
| eIF3c (GeneID 37005) | SID104186697 | 70691 | 76491 | 7.44e5 | 7.44e5 | inactive |
| CG6683 (GeneID 38970) | SID104190486 | 8.18e5 | 7.90e5 | 1.36e6 | 1.24e6 | inactive |
| CG6683 (GeneID 38970) | SID104204218 | 1.01e6 | 7.63e5 | 1.17e6 | 1.25e6 | inactive |
| Or69a (GeneID 2768964) | SID104191035 | 1.85e5 | 1.41e5 | 1.40e6 | 1.64e6 | inactive |
| Or69a (GeneID 2768964) | SID104204511 | 3.35e5 | 4.09e5 | 9.68e5 | 9.87e5 | inactive |
| Doa (GeneID 43415) | SID104193684 | 1.71e5 | 1.72e5 | 1.71e5 | 1.47e5 | inactive |
| Doa (GeneID 43415) | SID104193685 | 70199 | 1.78e5 | 2.33e5 | 3.25e5 | inactive |
| Doa (GeneID 43415) | SID104193688 | 1.85e5 | 1.09e5 | 1.80e5 | 1.08e5 | inactive |
| Doa (GeneID 43415) | SID104193689 | 3.13e5 | 3.30e5 | 4.77e5 | 8.54e5 | inactive |
| Doa (GeneID 43415) | SID104196442 | 1.24e5 | 1.06e5 | 9.67e5 | 7.36e5 | inactive |
| Doa (GeneID 43415) | SID104205175 | 3.92e5 | 3.71e5 | 6.00e5 | 5.86e5 | inactive |
| Doa (GeneID 43415) | SID104214178 | – | – | – | – | inactive |
| Doa (GeneID 43415) | SID104214179 | – | – | – | – | inactive |
